At least one peptide structure holds a part that was inferred or is arguable (an end, a ring closure or a residue). Residues, ends and D or L forms follow the SMILES beside them.
How the values were obtained:
A549 cells [1] = assay: Apoptosis induction assay (Annexin-5); assay type: cell-based, Human; conditions: 24 hours
HIV-1IIIB = assay: HIV-1 antiviral assay (CPE reduction, MTS) in CEM-SS cells; assay type: cell-based; conditions: peptide 10 micrograms per ml, 6 days post-infection
[2] = tested on: macrophages prepared from PBMC; assay: TNF alpha production assay (LPS-stimulated macrophages, ELISA); assay type: cell-based; conditions: human macrophages, test peptide 10 micrograms per ml, lipopolysaccharide 200 ng/ml, overnight
RAW 264.7 cells = assay: Phagocytosis assay (Fluorescein-labeled Escherichia coli, flow cytometry); assay type: cell-based, Mouse; conditions: test peptide 10 micrograms per ml, Fluorescein-labeled E. coli
A549 cells [3] = assay: Apoptosis prevention assay (C2 ceramide, Annexin-5); assay type: cell-based, Human; conditions: A549 cells pretreated 30 min, test peptide 10 micrograms per ml
[4] = tested on: Primary Human endothelial cells (HUVEC); assay: Endothelial cell migration assay; assay type: cell-based; conditions: test peptide 10 micrograms per ml, 22 hours
[5] = tested on: Human Peripheral Blood Mononuclear Cells (PBMC); assay: T cell proliferation assay (PHA, 3H-thymidine); conditions: test peptide 10 micrograms per ml
[6] = tested on: Human Peripheral Blood Mononuclear Cells (PBMC); assay: B cell proliferation assay (SAC plus Interleukin-2, 3H-thymidine); conditions: test peptide 10 micrograms per ml
A549 cells [7] = assay: Propidium iodide cell cycle assay; assay type: cell-based, Human; conditions: 24 hours, test peptide 10 micrograms per ml, FACS
spleen cells = assay: Th1/Th2 cytokine profiling assay (Ovalbumin-restimulated spleen cells, CBA kit); assay type: cell-based, Balb/c mice; conditions: Ovalbumin-restimulated Balb/c spleen cells; test peptide 10 micrograms per ml; 72 hours
HUVEC = assay: Endothelial tube formation assay; assay type: cell-based; conditions: test peptide 10 micrograms per ml, 20 hours

**Q.** `C[C@@H](O)[C@H](N)C(=O)N[C@@H](CCCCN)C(=O)N1CCC[C@H]1C(=O)N[C@@H](CCCNC(=N)N)C(=O)O` [Tuftsin, Thr-Lys-Pro-Arg-OH] (H-TKPR-OH) was tested. Which “% of induction” value (A549 cells [1]) did it give?
**A.** 18.6%

**Q.** What about the “% CPE reduction in HIV-1 infected CEM-SS cells” value (HIV-1IIIB) of the same compound?
**A.** 0.0%

**Q.** What about the “% of LPS induction” value [2] of the same compound?
**A.** 119.8%

**Q.** And the “% of control phagocytosis” value (RAW 264.7 cells)?
**A.** 102.9%

**Q.** What about the “% prevention of ceramide induced apoptosis” value (A549 cells [3]) of the same compound?
**A.** 0.0%

**Q.** What about the “% inhibition of migration” value [4] of the same compound?
**A.** 35%

**Q.** And the “% of PHA induced control” value [5]?
**A.** 91.9%

**Q.** What about the “% of SAC/IL2 induced control” value [6] of the same compound?
**A.** 103.6%

**Q.** And the “Cell cycle analysis G0/G1” value (A549 cells [7])?
**A.** 55.1

**Q.** What about the “Cell cycle analysis G2/M” value (A549 cells [7]) of the same compound?
**A.** 13.3

**Q.** What about the “Cell cycle analysis S” value (A549 cells [7]) of the same compound?
**A.** 32.6

**Q.** And the “IFNγ spleen cells; TH1 response (% of control)” value (spleen cells)?
**A.** 63.1 % of control

**Q.** What about the “IL-2 spleen cells (% of control)” value (spleen cells) of the same compound?
**A.** 112.1 % of control

**Q.** And the “IL-4 spleen cells; TH2 response (% of control)” value (spleen cells)?
**A.** 103.5 % of control

**Q.** And the “IL-5 spleen cells; TH2 response (% of control)” value (spleen cells)?
**A.** 107.6 % of control

**Q.** What about the “TNF-a spleen cells; TH1 response (% of control)” value (spleen cells) of the same compound?
**A.** 127.5 % of control

**Q.** And the “% inhibition of tube formation” value (HUVEC)?
**A.** 18%

Source: patent US20100210567A1, “USE OF A TUFTSIN AS A THERAPEUTIC AGENT” (priority 2007, published 2010)
